Test results published in the supplement of paper PMC4604168 (melanoma cell lines).
The other results are listed elsewhere or left out. Many values rest on one well or one pass, so single values are uncertain.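 Cells were imaged in 1,536-well plates, and nuclei stained with an antibody against cleaved PARP were counted against all DNA-stained nuclei to give the apoptosis fraction. Screening doses were chosen to leave most cells alive, and resting and induced cleaved-PARP levels differ strongly between cell lines.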

These compounds were tested on COLO829 (assay: cleaved PARP positive nuclei fraction relative to DMSO control; melanoma cells; higher = more apoptosis). Conditions: library dose: low library concentration; 72 h.
In the case of `CO[C@H]1C[C@@H]2CC[C@@H](C)[C@@](O)(O2)C(=O)C(=O)N2CCCC[C@H]2C(=O)O[C@H]([C@H](C)C[C@@H]2CC[C@@H](OCCO)[C@H](OC)C2)CC(=O)[C@H](C)/C=C(\C)[C@@H](O)[C@@H](OC)C(=O)[C@H](C)C[C@H](C)/C=C/C=C/C=C/1C` [everolimus] + Clc1ccc(Nc2nnc(Cc3ccncc3)c3ccccc23)cc1 [vatalanib] (first compound 0.02 µM, partner dose 2 µM), the “cleaved PARP positive nuclei fraction” value is reported as 112%.
For `CO[C@H]1C[C@@H]2CC[C@@H](C)[C@@](O)(O2)C(=O)C(=O)N2CCCC[C@H]2C(=O)O[C@H]([C@H](C)C[C@@H]2CC[C@@H](OCCO)[C@H](OC)C2)CC(=O)[C@H](C)/C=C(\C)[C@@H](O)[C@@H](OC)C(=O)[C@H](C)C[C@H](C)/C=C/C=C/C=C/1C` [everolimus] + C#Cc1cccc(Nc2ncnc3cc(OCCOC)c(OCCOC)cc23)c1 [erlotinib] (first compound 0.02 µM, partner dose 0.8 µM), the “cleaved PARP positive nuclei fraction” value was 108%.
For `CS(=O)(=O)CCNCc1ccc(-c2ccc3ncnc(Nc4ccc(OCc5cccc(F)c5)c(Cl)c4)c3c2)o1` [lapatinib] + OCc1c[nH]c2ccccc12 [Indole-3-carbinol] (first compound 0.8 µM, partner dose 0.8 µM), the “cleaved PARP positive nuclei fraction” value was 215%.
`C[C@@H](Oc1cc(-c2cnn(C3CCNCC3)c2)cnc1N)c1c(Cl)ccc(F)c1Cl` [Crizotinib] + Nc1ccn([C@@H]2O[C@H](CO)[C@@H](O)C2(F)F)c(=O)n1 [gemcitabine] (first compound 0.2 µM, partner dose 0.0004 µM) was tested, and the “cleaved PARP positive nuclei fraction” value was 221%.
